These are yes or no findings as the source states them, for the method shown. For some assays here: In cells and extracts the contact can be indirect. Some entries that bind do so weakly or less than the wild type.

Amino acid sequences for entries named in this document (tags omitted). A change or cut given only in a name is not applied to a line headed by its entry. Residues count along the entry.
UniProt Q15109: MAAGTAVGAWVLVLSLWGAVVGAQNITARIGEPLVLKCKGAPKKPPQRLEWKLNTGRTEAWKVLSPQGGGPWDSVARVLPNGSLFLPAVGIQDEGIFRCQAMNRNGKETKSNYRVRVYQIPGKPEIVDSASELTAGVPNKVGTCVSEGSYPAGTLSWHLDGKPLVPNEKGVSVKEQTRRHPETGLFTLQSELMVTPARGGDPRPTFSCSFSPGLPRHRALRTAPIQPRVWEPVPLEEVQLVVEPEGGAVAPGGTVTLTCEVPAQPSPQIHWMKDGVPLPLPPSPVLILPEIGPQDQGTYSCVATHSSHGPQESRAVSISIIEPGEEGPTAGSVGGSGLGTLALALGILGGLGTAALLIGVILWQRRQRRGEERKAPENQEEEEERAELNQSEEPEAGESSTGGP
Full length extracellular human RAGE (sRAGE) Ig-fusion protein: residues 28-331 of Q15109
UniProt P63159: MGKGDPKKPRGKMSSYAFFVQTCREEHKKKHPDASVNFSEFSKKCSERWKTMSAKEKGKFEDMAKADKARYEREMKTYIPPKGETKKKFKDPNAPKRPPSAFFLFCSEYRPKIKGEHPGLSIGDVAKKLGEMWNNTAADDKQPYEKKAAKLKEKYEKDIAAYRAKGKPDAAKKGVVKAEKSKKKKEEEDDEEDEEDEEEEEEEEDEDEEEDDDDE

This is an account of results in paper PMC6165534, “Inhibition of Homophilic Interactions and Ligand Binding of the Receptor for Advanced Glycation End Products by Heparin and Heparin-Related Carbohydrate Structures” (Medicines, 2018).

Experiment [1] addresses Full length extracellular human RAGE (sRAGE) Ig-fusion protein (human) (UniProt Q15109). The experiment is described as follows: ELISA; sRAGE Ig-fusion protein (5 mg/mL as printed) bound to protein A coated Maxisorb wells, blocked with BSA; biotinylated ligand 20 nM with or without carbohydrate inhibitors; streptavidin-HRP, absorbance at 490 nm; both purified. (In general: An ELISA detects its analyte on a solid surface through an enzyme-linked reagent.)

For experiment [2], the target named is Full-length RAGE–cytoplasmic hGLuc fragment chimera (UniProt Q15109). Kind of experiment: split reporter; live-cell protein-fragment complementation assay (PCA): cells transfected with full-length RAGE fused to complementary hGLuc fragments, luminescence 48 h after transfection in serum-free DMEM; with or without heparin (partial inhibition).

Take “Biotinylated recombinant HMGB1 (from UniProt P63159 1-215) (ligand)”: the binding entry in experiment [1] is listed as “binds”.

With “Full-length RAGE–cytoplasmic hGLuc fragment chimera (from UniProt Q15109 23-404) (receptor)”, the binding entry in experiment [2] is reported as “binds”.
